Measurements reported in patent publication US20030232420A1.

Columns and labels:
delta 1-91 RIα = assay: fluorescence anisotropy
[1] = target: RIIβ isoform of the PKA regulatory subunit; assay: fluorescence anisotropy

binding (delta 1-91 RIα): no binding
binding [1]: binds
Binder: VQGNTDEAQEELAWKIAKMIVSDVMQQC (tetramethylrhodamine-5-maleimide on the C-terminal Cys; C-terminal amide) [AKB (dual), WT (SEQ ID NO:108) …, rhodamine-labeled]

Results are given in words; binding and its absence hold for the method and conditions named. For some assays here: Binding can be weak; no strength is given.
